Data: PubChem BioAssay AID651640 (Broad Institute, 2012)
Out of some 350,000 compounds screened, about 6,000 (1.7%) were called active. Inconclusive means that the source gave no clear call. Such entries were picked first, then a sample of the others. Rule as the data show it: active = CPE inhibition above about 20% (passing the limit was not always enough); inconclusive = no clear call, values can overlap the other calls; tested in BHK-21 cells. Some compounds were tested as several samples or in several runs, with calls that do not always agree.

Experiment: protection of cells from dengue 2 killing – plate reader, single concentration, primary screen (AID 651640);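 also: 0% = median of neutral control wells and 100% = median of positive control wells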
Details: DENV2-infected cells, cytopathic effect rescue, at 9.99 µM, hits give high values

| SMILES | CPE inhibition |
| --- | --- |
| Cc1noc(C)c1NC(=O)Nc1ccc2c(c1)C(=O)N([C@H](C)CO)C[C@H](C)[C@@H](CN(C)S(=O)(=O)c1ccc(Cl)cc1)OCCCC[C@@H](C)O2 | inconclusive: 41.3% |
| CC(C)NC(=O)N1CC[C@@H]2[C@@H](CO)N(C)c3ccc(-c4cccc(F)c4)cc3[C@@H]21 | inactive: -16.4% |
| C[C@H](CO)N1C[C@H](C)[C@@H](CN(C)C)Oc2cc(-c3ccccc3F)ccc2S1(=O)=O | inconclusive: 24.5% |
| C#CCOCCOCCOCCNc1nc(N2CCN(C(=O)Cn3cc(CCCN=C(N)N)nn3)CC2)nc(N2CCN(C(=O)[C@H](CCCCN)n3cc(CCCC)nn3)CC2)n1 | inactive: -0.586% |
| COCC(=O)N1CC2(C1)[C@@H](c1ccccc1)[C@@H](CO)N2C(=O)c1ccncc1 | active: 30.4% |
| COc1ccc(-c2ccc3c(c2)[C@@H]2[C@@H](CCN2C(=O)c2ccc4c(c2)OCO4)[C@@H](CO)N3)cc1 | active: 74.2% |
| C/C=C/c1cnc2c(c1)C(=O)N([C@@H](C)CO)C[C@H](C)[C@@H](CN(C)S(=O)(=O)c1ccccc1)O2 | inconclusive: 57.7% |
| O=C(NCC(=O)N1CCCCCCC1)c1ccc(Br)o1 | inconclusive: 53.6% |
| C[C@H]1CN([C@@H](C)CO)C(=O)c2cc(NC(=O)c3ccncc3)ccc2O[C@H]1CN(C)Cc1ccc(C(=O)O)cc1 | active: 42.3% |
| CCN(CC(=O)Nc1ccc(NC(C)=O)cc1)C(=O)Cc1c(Cl)cccc1Cl | active: 54.8% |
| O=C(NCc1ccc(F)cc1)OC1CC2CC1[C@H]1CCCCN1C2=O (some centres undefined) | inconclusive: 24.2% |
| CCN(CC)C(=O)C(=O)N/N=C/c1ccc(C(=O)OC)cc1 | inconclusive: 21.7% |
| COc1ccc(NC(=O)N(C)C[C@H]2Oc3ncc(C#CC(C)C)cc3C(=O)N([C@@H](C)CO)C[C@H]2C)cc1 | active: 38.9% |
| CC(C)(C)N(Cc1ccccc1)C(=O)COC(=O)c1ccc(S(=O)(=O)N2CCOCC2)cc1 | inconclusive: 67.5% |
| O=C(NCC1CCCO1)c1csc(Nc2cccc3ccccc23)n1 (centres undefined) | inactive: 6.51% |
| Cc1ccc(S(=O)(=O)N(C)C[C@H]2OCCCC[C@H](C)Oc3ccc(NS(=O)(=O)c4ccc(Cl)cc4)cc3C(=O)N([C@@H](C)CO)C[C@H]2C)cc1 | inconclusive: 41.1% |
| Cc1cccc(S(=O)(=O)N2C[C@H](O)COC[C@@H]3O[C@@H](CC(=O)NCCCN4CCOCC4)CC[C@H]32)c1 | inactive: -17% |
| C[C@H](CO)N1C[C@H](C)[C@H](CN(C)C(=O)Nc2cccc3ccccc23)OCCCC[C@H](C)Oc2ccc(NS(=O)(=O)c3cccs3)cc2C1=O | inconclusive: 44.5% |
| CC1(C#N)c2ccccc2C(Br)=CN1C(=O)c1ccccc1 (centres undefined) | active: 30.9% |
| CCCCCCCCNC(=O)c1cccnc1SCC(=O)Nc1ccccc1OC | inconclusive: 28.8% |
| COc1ccc(-c2cc3c(nn2)-c2ccccc2C3=O)cc1 | inactive: -6.21% |
| COC(=O)C(C(=O)OC)C(CC(=O)c1ccc(C)cc1)c1cc(OC)c(OC)c(OC)c1 (centres undefined) | inconclusive: 25.2% |
| C[C@H](CO)N1C[C@H](C)[C@@H](CN(C)Cc2ccccc2)Oc2c(NC(=O)Nc3ccccc3)cccc2C1=O | inconclusive: 28.6% |

Arranged by molecular weight (low to high): some entries from above

| SMILES | CPE inhibition |
| --- | --- |
| COc1ccc(-c2cc3c(nn2)-c2ccccc2C3=O)cc1 | inactive: -6.21% |
| CCN(CC)C(=O)C(=O)N/N=C/c1ccc(C(=O)OC)cc1 | inconclusive: 21.7% |
| COCC(=O)N1CC2(C1)[C@@H](c1ccccc1)[C@@H](CO)N2C(=O)c1ccncc1 | active: 30.4% |
| CC(C)NC(=O)N1CC[C@@H]2[C@@H](CO)N(C)c3ccc(-c4cccc(F)c4)cc3[C@@H]21 | inactive: -16.4% |
| C[C@H](CO)N1C[C@H](C)[C@@H](CN(C)C)Oc2cc(-c3ccccc3F)ccc2S1(=O)=O | inconclusive: 24.5% |
| C/C=C/c1cnc2c(c1)C(=O)N([C@@H](C)CO)C[C@H](C)[C@@H](CN(C)S(=O)(=O)c1ccccc1)O2 | inconclusive: 57.7% |
| CC(C)(C)N(Cc1ccccc1)C(=O)COC(=O)c1ccc(S(=O)(=O)N2CCOCC2)cc1 | inconclusive: 67.5% |
| COc1ccc(NC(=O)N(C)C[C@H]2Oc3ncc(C#CC(C)C)cc3C(=O)N([C@@H](C)CO)C[C@H]2C)cc1 | active: 38.9% |
| C[C@H](CO)N1C[C@H](C)[C@@H](CN(C)Cc2ccccc2)Oc2c(NC(=O)Nc3ccccc3)cccc2C1=O | inconclusive: 28.6% |
| Cc1cccc(S(=O)(=O)N2C[C@H](O)COC[C@@H]3O[C@@H](CC(=O)NCCCN4CCOCC4)CC[C@H]32)c1 | inactive: -17% |
| C[C@H]1CN([C@@H](C)CO)C(=O)c2cc(NC(=O)c3ccncc3)ccc2O[C@H]1CN(C)Cc1ccc(C(=O)O)cc1 | active: 42.3% |
| C[C@H](CO)N1C[C@H](C)[C@H](CN(C)C(=O)Nc2cccc3ccccc23)OCCCC[C@H](C)Oc2ccc(NS(=O)(=O)c3cccs3)cc2C1=O | inconclusive: 44.5% |
| Cc1ccc(S(=O)(=O)N(C)C[C@H]2OCCCC[C@H](C)Oc3ccc(NS(=O)(=O)c4ccc(Cl)cc4)cc3C(=O)N([C@@H](C)CO)C[C@H]2C)cc1 | inconclusive: 41.1% |
| C#CCOCCOCCOCCNc1nc(N2CCN(C(=O)Cn3cc(CCCN=C(N)N)nn3)CC2)nc(N2CCN(C(=O)[C@H](CCCCN)n3cc(CCCC)nn3)CC2)n1 | inactive: -0.586% |

Further results

| SMILES | CPE inhibition |
| --- | --- |
| COCCNC(=O)C1(C)CCCN(Cc2sc(C)nc2C)C1 (centres undefined) | inconclusive: 73.7% |
| O=C(Cc1ccccc1)N1CC(=O)N2[C@H](C1)[C@H](c1ccc(C#CCc3ccccc3)cc1)[C@@H]2CO | inactive: -13.3% |
| O=C(N[C@@H]1CC[C@H](CC(=O)N2CCCCC2)O[C@@H]1CO)c1ccc2c(c1)OCO2 | inconclusive: 24.7% |
| Cc1noc(C)c1S(=O)(=O)N(C)C[C@H]1OCCCC[C@@H](C)Oc2ccc(NS(=O)(=O)c3ccc(Cl)cc3)cc2C(=O)N([C@@H](C)CO)C[C@@H]1C | active: 30.6% |
| C[C@@H]1CCCCO[C@@H](CN(C)S(=O)(=O)c2cn(C)cn2)[C@H](C)CN([C@@H](C)CO)C(=O)c2cc(NS(=O)(=O)c3cn(C)cn3)ccc2O1 | inactive: -6.62% |
| Cc1cccc(CN2C(=O)CSc3ccc(C(=O)NC4CC4)cc32)c1 | inactive: -1.31% |
| O=C(C[C@H]1C[C@H]2c3cc(NC(=O)NC4CCCCC4)ccc3O[C@H]2[C@@H](CO)O1)NCCc1ccccc1 | inconclusive: 23.3% |
| Cc1cc(C)c2c(N)c(C(=O)Nc3cccc(C)c3C)sc2n1 | inconclusive: 25.6% |
| COc1ccc(CNC(=O)C[C@H]2C=C[C@@H](NS(=O)(=O)c3cccc(OC)c3)[C@H](CO)O2)cc1 | inactive: 0.492% |
| CC1=C(C)N(C)[C@H](c2ccccc2Br)[C@H](O)C1=O | inconclusive: 33.9% |
| O=C(COC(=O)CN1C(=O)C2CCCCC2C1=O)Nc1ccc(S(=O)(=O)N2CCOCC2)cc1 (centres undefined) | inactive: -0.667% |
| COc1cccc(CNC(=O)CCNS(=O)(=O)c2ccc(C)cc2)c1 | inconclusive: 52.9% |
| C[C@@H]1CCCCO[C@H](CN(C)C(=O)Nc2ccc(C(F)(F)F)cc2)[C@@H](C)CN([C@H](C)CO)C(=O)c2cc(NS(=O)(=O)c3cn(C)cn3)ccc2O1 | inactive: -8.66% |
| CS(=O)(=O)C1=NSC2=NC(=O)/C(=C\c3ccc(OS(=O)(=O)c4ccccc4)cc3)C(=N)N21 | inactive: 1.92% |
| COc1ccc2c(CC(=O)Nc3ccc4nc(N5CCOCC5)sc4c3)coc2c1 | inconclusive: 45.6% |
| Cc1cccc(-c2ccc([C@H]3[C@H]4CN(S(=O)(=O)c5cccc(C)c5)CCCCN4[C@H]3CO)cc2)c1 | active: 28.7% |
| O=C(COC(=O)CCc1nc2ccccc2c(=O)[nH]1)Nc1c(Cl)cccc1C(F)(F)F | inconclusive: 72.1% |
| COc1ccc(C2=Nc3ccccc3N(C(=O)c3ccncc3)C2C(=O)NC(C)C)cc1 (centres undefined) | active: 59.5% |
| Cc1noc(C)c1NC(=O)Nc1ccc2c(c1)C(=O)N([C@H](C)CO)C[C@H](C)[C@H](CN(C)C)OCCCC[C@@H](C)O2 | inconclusive: 61.6% |
| COc1ccc(NC(=O)Nc2ccc3c(c2)C(=O)N([C@@H](C)CO)C[C@H](C)[C@H](CN(C)C(=O)Cc2ccccc2)OCCCC[C@@H](C)O3)cc1 | inactive: 0.33% |
| COc1ccc(OC)c(C2=NS(=O)(=O)N(C)C(C(=O)Nc3ccc(C(C)=O)cc3)=C2)c1 | inconclusive: 30.9% |
| COc1ccc(-c2ccccc2[C@@H]2[C@@H](C#N)N(C(=O)C3CC3)[C@H]2CO)cc1 | active: 26.5% |
| COc1ccc(S(=O)(=O)Nc2cccc3c2O[C@@H](CN(C)C(=O)Nc2c(C)noc2C)[C@@H](C)CN([C@@H](C)CO)C3=O)cc1 | active: 26.3% |

| SMILES | CPE inhibition |
| --- | --- |
| C[C@H](CO)N1C[C@H](C)[C@@H](CN(C)C)Oc2c(NC(=O)c3cnccn3)cccc2C1=O | active: 29.7% |
| CCN1CCN(C(=O)c2oc(=O)c3ccccc3c2-c2ccc(C)cc2)CC1 | inconclusive: 43.2% |
| COc1cccc(N2[C@@H](CC(C)=O)c3cc(C(F)(F)F)ccc3S2(=O)=O)c1 | inconclusive: 49.2% |
| COc1ccc(C#Cc2ccc([C@H]3[C@H](CO)N4C(=O)CN(C(C)=O)C[C@@H]34)cc2)cc1 | inconclusive: 32.4% |
| CN1CCN(C(=O)CNc2ccc(C(F)(F)F)cc2[N+](=O)[O-])CC1 | inconclusive: 25.1% |
| CC1=C(/C=C/C(C)=C/C=C/C(C)=C/C(=O)O)C(C)(C)CCC1 | inconclusive: 20.2% |
| COC(=O)c1ccc(C(=O)OC)c(NC(=S)N2CCC(C(N)=O)CC2)c1 | inconclusive: 24.6% |
| COc1ccc(C(=O)CC(=O)C(=O)Nc2cccc([N+](=O)[O-])c2C)cc1 | active: 29.9% |
| Cc1c(NC(=O)CC#N)c(=O)n(-c2ccccc2)n1C | inconclusive: 33.8% |
| COc1ccc(CN(C)C[C@H]2OCCCC[C@@H](C)Oc3ccc(NC(=O)NC(C)C)cc3C(=O)N([C@H](C)CO)C[C@H]2C)cc1 | active: 85.5% |
| C[C@@H]1CN([C@H](C)CO)C(=O)c2cc(C3=CCCCC3)cnc2O[C@H]1CN(C)C(=O)c1ccc2c(c1)OCO2 | active: 54% |
| C/C=C/c1ccc([C@H]2[C@@H](CO)N(c3nc(-c4ccccc4)cs3)[C@H]2C#N)cc1 | inconclusive: 26.4% |
| COCCN(CC(=O)Oc1ccccc1P(=O)(OC)OC)Cc1ccccc1 | inconclusive: 42.8% |
| COc1ccc(OC)c(CCNC(=O)CC2Oc3ccccc3NC2=O)c1 (centres undefined) | inconclusive: 50.5% |
| Cc1cc(C)c2c(N)c(C(=O)c3ccc(Br)cc3)oc2n1 | active: 46.4% |
| Fc1ccc(CCNC(=S)Nc2ccc(F)cc2)cc1 | inconclusive: 28.1% |
| O=[N+]([O-])c1cccc2c(S(=O)(=O)N3CCCCC3)cccc12 | active: 53.1% |
| CN1CCN(C(=O)C[C@@H]2CC[C@H]3[C@@H](COC[C@H](O)CN3C(=O)C3CCCC3)O2)CC1 | active: 76.1% |
| C[C@H]1CN([C@@H](C)CO)C(=O)c2cccc(NC(=O)C3CC3)c2O[C@@H]1CN(C)Cc1ccncc1 | inconclusive: 25.4% |
| COCC(=O)Nc1ccc2c(c1)OC[C@H](C)N(Cc1ccccc1F)C[C@H](C)[C@H](OC)CN(C)C2=O | inactive: 17.1% |
| C/C=C/c1ccc([C@@H]2[C@@H](CO)N(C(=O)NCCC)[C@H]2CNC(=O)C2CC2)cc1 | inactive: -5.98% |
| Nc1[nH]c(C(=O)c2ccc(Br)cc2)c(-c2ccc(Br)cc2)c1C(=O)NCc1ccc(-c2ccccc2)cc1 | inactive: 1.83% |
| C[C@@H](c1ccccc1)N1C[C@H](COCc2ccccc2)Oc2cc(N3CC[C@H](N(C)C)C3)ccc2S1(=O)=O | inconclusive: 27.3% |
